The other results are listed elsewhere or left out.
These sequences were tested against T1, OsSMF1 (Oryza sativa, UniProt Q6ZLB0 1-436) (assay: protein-binding microarray (RPBM); PBS, 2% BSA, 51.3 ng/ul salmon testes DNA, 50 uM zinc acetate, 200 nM TF, 25 C, 1 h; high values mean tight binding). Conditions: protein: recombinant; tags: N-terminal polyhistidine and DsRed monomer fusion (pET32a); chain copies: 2; label: CyDye5-dUTP incorporated in the synthesized complementary strand; 3' TTTTT single-stranded linker to array surface; dsDNA, one strand shown.
T1 sequence: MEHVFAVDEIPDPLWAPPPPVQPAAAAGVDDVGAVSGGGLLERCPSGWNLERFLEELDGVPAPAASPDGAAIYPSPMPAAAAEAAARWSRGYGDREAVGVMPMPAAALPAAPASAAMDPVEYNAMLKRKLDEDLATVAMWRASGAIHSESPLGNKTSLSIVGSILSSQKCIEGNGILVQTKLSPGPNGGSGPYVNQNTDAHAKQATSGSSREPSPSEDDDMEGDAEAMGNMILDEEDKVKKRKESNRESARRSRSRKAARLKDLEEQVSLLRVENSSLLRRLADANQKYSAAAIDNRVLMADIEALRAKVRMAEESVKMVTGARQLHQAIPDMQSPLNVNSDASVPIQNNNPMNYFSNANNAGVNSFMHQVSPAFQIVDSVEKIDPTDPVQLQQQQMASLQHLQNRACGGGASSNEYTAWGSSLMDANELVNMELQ
Method in brief: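 Transcription factors were each fused at the N-terminus to a polyhistidine tag plus DsRed and expressed in E. coli BL21-CodonPlus before Ni–NTA purification. Binding to a double-stranded custom Agilent array was carried out with 200 nM protein at 25 °C for 1 h in PBS, 2% BSA, salmon testes DNA and 50 µM zinc acetate. The binding signal is per-feature fluorescence intensity, in arbitrary units, on an Axon 4000B scanner.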
With “AGTTGATAAATTTCAGAAAATTTTGATGACAAAGCAAAGCCGGAGTCACCTAGTGCAG” the binding signal was 5580 fluorescence intensity (a.u.). In the case of “CTTCAGGGGCAAATTAGTCATTTTCCCCACATGTCAGAGCCGGAGTCACCTAGTGCAG”, the binding signal is reported as 3370 fluorescence intensity (a.u.). With “TTGTTTCTTGGTTATCACCCGCCGTGTGACTTCCGTGTTCCGGAGTCACCTAGTGCAG” the binding signal was 3280 fluorescence intensity (a.u.). For “TGTATGCACCTCAAAACTGACTCAATCTCTTCCATACCCTCGGAGTCACCTAGTGCAG”, the binding signal was 4580 fluorescence intensity (a.u.). In the case of “TCTTTTCTAAGTCATGTTAGACCAATAGAGATTTCTCAAACGGAGTCACCTAGTGCAG”, the binding signal is reported as 27600 fluorescence intensity (a.u.). “TCTTTTCAGCCCCGCCTAGTCCGTCACCTTTCTCTGCTCGCGGAGTCACCTAGTGCAG” was tested, and the binding signal was 4080 fluorescence intensity (a.u.). In the case of “TTAAGTGTTCCACGCAAAACGAGGTGGTAATAACGTGTGACGGAGTCACCTAGTGCAG”, the binding signal is reported as 3740 fluorescence intensity (a.u.). In the case of “CGCCGATCTGACGCGTCGTCATCAACGATTGCTAGATAGCCGGAGTCACCTAGTGCAG”, the binding signal is reported as 6730 fluorescence intensity (a.u.). “AGGACGAGACCCCATCCAACCACCCCAGCCACGTCAGCAACGGAGTCACCTAGTGCAG” was tested, and the binding signal was 34000 fluorescence intensity (a.u.). For “GTCTCCGCGTCACTGAAATTCCCCACCCACGCATCGCACCCGGAGTCACCTAGTGCAG”, the binding signal was 5360 fluorescence intensity (a.u.). In the case of “ATCCTGCATTAGCTCTCCTTCCCTTTGTTTTCAGAAGGAACGGAGTCACCTAGTGCAG”, the binding signal is reported as 30600 fluorescence intensity (a.u.). For “CTACATCATACACTGTGTAGATTCAGGATGGTGTAAGCAGCGGAGTCACCTAGTGCAG”, the binding signal was 3560 fluorescence intensity (a.u.). In the case of “CCGCTCCGCCTACTCTGGCCACGCGCTGACGCCGCGTCCCCGGAGTCACCTAGTGCAG”, the binding signal is reported as 7060 fluorescence intensity (a.u.). “CCAACTACTATGACACATCACAGTAGGTCAACATCATCTCCGGAGTCACCTAGTGCAG” was tested, and the binding signal was 10200 fluorescence intensity (a.u.). With “CGCGCGCGCGTGCGTGCGTGCGTGTGGGTGGGTGGGTGGACGGAGTCACCTAGTGCAG” the binding signal was 7030 fluorescence intensity (a.u.). For “CTCAAAGCAAGATCATAACGAACCTACCCACGTGTTGGCACGGAGTCACCTAGTGCAG”, the binding signal was 4560 fluorescence intensity (a.u.). For “CGGAAGAGAGCTCAAGTACCGGGACGTCTTCCTCGTCTGCCGGAGTCACCTAGTGCAG”, the binding signal was 3460 fluorescence intensity (a.u.). With “GGAGAACGAAGCCAGCTCATCAATCTGCGACGAGGATCATCGGAGTCACCTAGTGCAG” the binding signal was 6590 fluorescence intensity (a.u.). With “GCGGACCGCCGGTCGAACGCTCGAACCGCATTGCCAGCGTCGGAGTCACCTAGTGCAG” the binding signal was 31200 fluorescence intensity (a.u.). In the case of “TAGAATTGTCAAGTCAATGCCACGTGGGACAAAGACCTAGCGGAGTCACCTAGTGCAG”, the binding signal is reported as 17900 fluorescence intensity (a.u.). “AGTCGGGTAGGGTGTGCGTGTGTGCGTTCATAGGGGTGTGCGGAGTCACCTAGTGCAG” was tested, and the binding signal was 5880 fluorescence intensity (a.u.). For “GCTACTACGTGTATTACGTAAGCAGGACTATGCGACCATACGGAGTCACCTAGTGCAG”, the binding signal was 4050 fluorescence intensity (a.u.). With “GGGGTACAGTGACGATGACTCAACCTGCCTGGCGCGGTGCCGGAGTCACCTAGTGCAG” the binding signal was 7580 fluorescence intensity (a.u.). “AGCGAACGTTCGCCGACTAATTATCTAGCGAATCACTCGGCGGAGTCACCTAGTGCAG” was tested, and the binding signal was 3630 fluorescence intensity (a.u.). With “CCACGCTGACTCAGCAGCCACGTAGGATAAAACTGGGGTCCGGAGTCACCTAGTGCAG” the binding signal was 34000 fluorescence intensity (a.u.). With “AAAATCAAGAAATCCAGTGCAGAAAACCTAAAACACCAAACGGAGTCACCTAGTGCAG” the binding signal was 31900 fluorescence intensity (a.u.). In the case of “GTAGAGACCAAATTACCCCTGCATCCCTTTCAATAGCTGGCGGAGTCACCTAGTGCAG”, the binding signal is reported as 35300 fluorescence intensity (a.u.). For “ACCGCCCCAATCTCCCACTACCTCCACCTCCTCCGCTCCCCGGAGTCACCTAGTGCAG”, the binding signal was 4060 fluorescence intensity (a.u.). “AACTCTTCTTCTATAATGAGTCATCTACTTCTCCGATCTCCGGAGTCACCTAGTGCAG” was tested, and the binding signal was 12900 fluorescence intensity (a.u.). With “AGATCACGTTAGTCAATGTGTCATGGGCTTTGGGCCGGGTCGGAGTCACCTAGTGCAG” the binding signal was 4220 fluorescence intensity (a.u.). “ACCAACAACAACAACAACAACGTCATGGTATACTGTCAGTCGGAGTCACCTAGTGCAG” was tested, and the binding signal was 18900 fluorescence intensity (a.u.). With “GGAGATTGACACGTTGGTCTACGTGCCTATGCGTGTGTTCCGGAGTCACCTAGTGCAG” the binding signal was 8730 fluorescence intensity (a.u.). In the case of “CATCCTCCTCCTTCGCCGCCTCCATCGGTCACCGCCGCCCCGGAGTCACCTAGTGCAG”, the binding signal is reported as 9940 fluorescence intensity (a.u.). With “TTTATTATTAGACTACGTTTAATACTTTAAATATGTGTCCCGGAGTCACCTAGTGCAG” the binding signal was 3340 fluorescence intensity (a.u.). “ATCAAATTGCCAAGTAAGCGCCACGTTATTACCAAGACTGCGGAGTCACCTAGTGCAG” was tested, and the binding signal was 10600 fluorescence intensity (a.u.). For “GAGGATCTTATGTTTAGCAAATTTAGCCCATTGTAAATTTCGGAGTCACCTAGTGCAG”, the binding signal was 3210 fluorescence intensity (a.u.). In the case of “GATTAATTCACTACTGCTTCCTCCATGTCATATTATAAGACGGAGTCACCTAGTGCAG”, the binding signal is reported as 4820 fluorescence intensity (a.u.). In the case of “GCGTGCGCGTCGACGTCGTCACCGCCGTCCACGGCGTAGTCGGAGTCACCTAGTGCAG”, the binding signal is reported as 5680 fluorescence intensity (a.u.). “AGTGTTACTGCACGATATATACACGTTACCACCTGATAGTCGGAGTCACCTAGTGCAG” was tested, and the binding signal was 3350 fluorescence intensity (a.u.). With “CTTTCCTCTACACTAGTGGGTGGCGCCGTGGGTGGGAGGGCGGAGTCACCTAGTGCAG” the binding signal was 4340 fluorescence intensity (a.u.). “TTTATATAATAGTTACTTACTATACTATTAATACTTGATTCGGAGTCACCTAGTGCAG” was tested, and the binding signal was 16600 fluorescence intensity (a.u.). “CCCCTACCAGTGACGCATTAGGTCCTCCTGGCTAGCAAAACGGAGTCACCTAGTGCAG” was tested, and the binding signal was 4750 fluorescence intensity (a.u.).

Reference: article PMC7819943, “Rice protein-binding microarrays: a tool to detect cis-acting elements near promoter regions in rice”
